Data published in patent publication US5633274A, “Cancer treatments” (President and Fellows of Harvard College, priority 1993, dated 1997).
pIC50: −log10 of the molar value.

Tested on: rat vascular smooth muscle cells
Test: cells
Conditions: 24 h, read-out: ID50

Structure (SMILES): Clc1ccccc1C(c1ccccc1)(c1ccccc1)n1ccnc1 [clotrimazole]
- pIC50: ~5.82
